The source of these data is PubChem BioAssay AID2685 (National Center for Advancing Translational Sciences (NCATS), 2010).

Some of the results follow. Further columns of the screen follow, without active or inactive calls. Most of these compounds were active or inconclusive in the main read-out, so they are no random draw. The note in brackets gives the kind of curve behind each potency; many fits are weak.

This experiment in a line: qHTS Assay for Lipid Storage Modulators in Drosophila S3 Cells.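 For cell number change: cells counted by Cell Tracker Red CMTPX staining in the red channel.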 Conditions: BODIPY lipid droplet fluorescence, 18-24 h; for cell number change: measured here: cell count max response, cells fed with added oleic acid. The method, boiled down: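 Drosophila S3 cells got compounds at several concentrations plus oleic acid (400 uM solution). Laser-scanning cytometry with 488 nm excitation read lipid droplets at 500-530 nm and cells at 575-640 nm. Percent activity was relative to 20 uM Triacsin C.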

[1] abbreviates: measured here: cell number channel AC50, cells fed with added oleic acid.
[2] abbreviates: measured here: lipid fluorescence (Fed channel) AC50, cells fed with added oleic acid.

For orientation: AC50 means the concentration at which the activity in the assay is half-maximal. Low values mean activity at low concentration, high ones activity only at high concentration. Turning to `COc1ccc(NS(=O)(=O)c2cc(NC(=O)C3CCCO3)ccc2N2CCCCC2)cc1` (stereo not given), the cell number change was -13.8%. Also, the AC50 under setting [1] was 0.0731 µM [falling, full curve, poor fit]. Under setting [2], the AC50 is 0.0651 µM [falling, full curve, poor fit]. For the molecule `CCOc1ccc(C(=O)NCC(c2cccs2)N(C)C)cc1` (stereo not given), the cell number change is -9.82%. For the same molecule, under setting [2], the AC50 is 20.6 µM [falling, partial curve, poor fit]. Turning to `CCOc1cc2[nH]c(=O)n(CCCN3CCCC3=O)c(=O)c2cc1OCC`, the cell number change amounted to 14.8%. The AC50 under setting [2] was 6.51 µM [falling, single point]. In the case of `NC(=O)CCn1ccc2ccccc21`, the cell number change is -35%. The AC50 under setting [1] was 29.1 µM [falling, single point]. Also, the AC50 under setting [2] was 14.6 µM [falling, single point].

In the case of `C=CCSc1nc(N)c(C#N)c(-c2ccccc2)c1C#N`, the cell number change is -12.9%. In addition, the AC50 under setting [2] was 0.517 µM [rising, full curve].

Take `O=C(CN1CCN(Cc2ccccc2)CC1)NCc1ccccc1Cl`: the half-maximal activity concentration (AC50) reads like this: under setting [1], 4.11 µM [rising, partial curve, poor fit]; under setting [2], 0.13 µM [rising, single point]. In the case of `O=C(Nc1ccccc1N1CCOCC1)c1ccc(OCc2cscn2)cc1`, the cell number change is -0.87%. With `Cn1c(=O)c2c3c(sc2n2c(SCC(=O)c4ccccc4)nnc12)COC(C)(C)C3`, the cell number change came to 5.38%. Consider `COc1ccc(/C(O)=C2\C(=O)C(=O)N(Cc3ccco3)C2c2ccc(OC)cc2OC)cc1` (stereo not given), for which the cell number change stood at 50.1%. Besides, under setting [1], the half-maximal activity concentration (AC50) is 32.6 µM [rising, single point]. Moreover, under setting [2], the concentration at half-maximal activity (AC50) was 29.1 µM [rising, partial curve]. Turning to `CCc1ccc(NC(=O)CCS(=O)(=O)c2ccc3c(c2)CCN3C(C)=O)cc1`, the cell number change was 17.6%. For `O=C(COc1ccc(Br)cc1Br)NNC(=O)c1cccs1`, the cell number change was determined as 14.5%. The AC50 under setting [2] is 29.1 µM [rising, single point]. Consider `COC(=O)Cc1ccc2oc(-c3cccnc3)nc2c1`, for which the cell number change worked out at 31.8%. Consider `CCSc1nc2ccccc2c(=O)n1C1CCOC(C)(C)C1` (stereo not given), for which the cell number change was -27.9%. In addition, under setting [2], the AC50 was 32.6 µM [falling, single point].

As to `NC(=O)N/N=C/c1c(F)cccc1F`, the cell number change is -46%. Also, under setting [1], the AC50 was 29.1 µM [falling, single point]. Under setting [2], the AC50 was 16.4 µM [rising, partial curve]. Take `CC1=NCC(C)c2c1[nH]c1ccccc21` (stereo not given): the cell number change was -5.79%. Further, the AC50 under setting [2] was 10.3 µM [falling, single point]. Regarding `CC(Oc1ccccc1Cl)C(=O)N1CCOCC1` (stereo not given), the cell number change was -27%. In addition, the AC50 under setting [2] was 29.1 µM [falling, single point]. Consider `NS(=O)(=O)c1ccc(CCNC(=O)c2cc3ccccc3s2)cc1`, for which the AC50 was 18.4 µM [rising, partial curve] under setting [1] and 5.62 µM [rising, single point] under setting [2]. For the molecule `CC12CC(NC(=O)N1c1cccc(C(=O)N3CCN(c4ccccc4F)CC3)c1)c1ccccc1O2` (stereo not given), the cell number change is 63.7%. For the same molecule, the AC50 under setting [1] is 13 µM [rising, partial curve]. Also, the AC50 under setting [2] was 6.51 µM [rising, single point]. On to `O=C(NCc1ccccc1Cl)C(=O)NCC1OCCN1S(=O)(=O)c1cccs1` (stereo not given), for which the cell number change was 18.6%. The concentration at half-maximal activity (AC50) under setting [2] is 4.61 µM [rising, full curve, poor fit]. `CC(C)(C)N1C(=O)c2ccc(C(=O)Nc3nccs3)cc2C1=O`: the cell number change turned out to be 56.3%. Under setting [1], the AC50 was 14.6 µM [rising, partial curve]. Take `Cc1nn(Cc2ccccc2)c(C)c1NC(=O)CCCn1nc(C)c([N+](=O)[O-])c1C`: the cell number change is -44.4%. For the same molecule, the half-maximal activity concentration (AC50) under setting [1] is 29.1 µM [falling, single point].

Regarding `CC(C)(C)NC(=O)NC(=O)CSc1nnc2ccccn12`, the cell number change turned out to be 31.2%. Moreover, under setting [1], the AC50 was 4.11 µM [rising, full curve, poor fit]. With `c1ccc(Oc2ccc(-c3ccnc4ncnn34)cc2)cc1`, the cell number change worked out at 26.7%.

For the molecule `O=C(Nc1nnc(SCC(=O)N2CCCc3ccccc32)s1)c1cccc2ccccc12`, the cell number change was -20%. In addition, the AC50 under setting [2] was 0.0517 µM [falling, full curve, poor fit]. In the case of `NS(=O)(=O)c1ccc(N/C=C/C(=O)c2ccc(Br)cc2)cc1`, the cell number change is 3.03%. In addition, the concentration at half-maximal activity (AC50) under setting [2] is 1.46 µM [rising, partial curve, poor fit]. With `Cc1ccc(S(=O)(=O)N2CCN(C(=O)COC(=O)c3ccc([N+](=O)[O-])o3)CC2)c(C)c1`, the cell number change was 27.7%. For the same molecule, under setting [2], the concentration at half-maximal activity (AC50) is 1.84 µM [rising, partial curve]. For the molecule `CC(=O)C1=C(O)C(=O)N(c2cccc(Br)c2)C1c1ccccc1Cl` (stereo not given), the cell number change was -12.3%. Consider `COc1ccc(N(CCCN2C(=O)c3cccc4cccc(c34)C2=O)C(=O)c2cccnc2)cc1`, for which the cell number change was 20.6%. Besides, under setting [1], the AC50 is 2.31 µM [rising, partial curve]. Also, under setting [2], the concentration at half-maximal activity (AC50) was 5.8 µM [rising, partial curve, poor fit]. On to `CCCCCCn1c(=O)[nH]c2nc3cc(N)c(C)cc3nc2c1=O`, for which the cell number change is -82.3%. Besides, the AC50 under setting [1] was 29.1 µM [falling, single point]. Also, under setting [2], the concentration at half-maximal activity (AC50) was 29.1 µM [falling, single point]. With `Cc1ccn2c(=O)nc(SCC(=O)N3CCC(C)CC3)nc2c1`, the cell number change was determined as 8.43%. With `NNC(=O)CN1CCCc2ccccc21`, the cell number change is -10.5%. The concentration at half-maximal activity (AC50) under setting [1] is 2.06 µM [falling, partial curve]. Further, the half-maximal activity concentration (AC50) under setting [2] was 0.13 µM [falling, full curve, poor fit].

With `CSCCC(NC(=O)c1ccccc1)C(=O)N1CC=C(c2ccccc2)CC1` (stereo not given), the cell number change worked out at 43.1%. For the same molecule, under setting [1], the AC50 was 16.4 µM [rising, partial curve]. Moreover, the half-maximal activity concentration (AC50) under setting [2] is 9.2 µM [rising, partial curve, poor fit]. On to `Cc1ccc(C(C)C)c(OCCNC(=O)c2cncc(Br)c2)c1`, for which the cell number change is 18.2%. Turning to `O=C(O)CSCC(=O)NCc1c(Cl)cccc1Oc1ccccc1`, the cell number change was -25.5%. With `CCC(C)(C)NC(=O)CC(c1ccc(OC)cc1)n1cccc1` (stereo not given), the cell number change was -26.6%. Moreover, under setting [1], the half-maximal activity concentration (AC50) is 4.11 µM [falling, full curve, poor fit]. Moreover, the AC50 under setting [2] is 16.4 µM [falling, partial curve]. As for `Cc1ccc(S(=O)(=O)N(CC(=O)NCc2ccncc2)C2CCCCC2)cc1`, the cell number change came out at 1.4%. Still for that read-out and setting: to `CC(C)NC(=O)c1ccc2c(=O)n(C3CCCC3)c(=S)[nH]c2c1` belongs 20.7%. For the molecule `O=C(Cn1cncc1-c1ccc([N+](=O)[O-])cc1)Nc1cccc2ccccc12`, the cell number change is 7.41%. In addition, the half-maximal activity concentration (AC50) under setting [2] is 0.0326 µM [rising, full curve, poor fit].
